About 1,700 (0.47%) of roughly 360,000 compounds were called active. The shares of active, inactive and inconclusive entries below differ from those in the screen. Calls follow the shape of the dose curve; as a rule, active = well fitted inhibition curve with a large enough effect; inconclusive = small, poorly fitted or top-dose-only effect; inactive = no such curve, though single readings can be large or run the other way. Where the call is inconclusive, the potency comes from a doubtful curve fit.
What follows are compounds tested against Bifunctional 3'-5' exonuclease/ATP-dependent helicase WRN (Homo sapiens) (UniProt Q14191) (assay: qHTS for Inhibitors of WRN Helicase). Details: WRN helicase unwinding, fluorescent forked duplex, kinetic; activity change, negative = inhibition: at 114 µM (top of the series) unless noted.
Method in brief: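 Primary qHTS, 1536-well format. 20 nM WRN + compound, 15 min RT; start with 100 nM forked fluorophore/quencher duplex, 2 mM ATP (final); kinetic read ex 525/em 598 nm.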
% is scaled to controls: 0 for no effect and ±100 for the full control effect; potency is read from the fitted curve at half-maximal effect.
Also: nearly all actives have a fitted effect of over 55% in size.

By UniProt entry, the sequences of proteins in these tests, tags left out.
UniProt Q14191, whole entry, looked up: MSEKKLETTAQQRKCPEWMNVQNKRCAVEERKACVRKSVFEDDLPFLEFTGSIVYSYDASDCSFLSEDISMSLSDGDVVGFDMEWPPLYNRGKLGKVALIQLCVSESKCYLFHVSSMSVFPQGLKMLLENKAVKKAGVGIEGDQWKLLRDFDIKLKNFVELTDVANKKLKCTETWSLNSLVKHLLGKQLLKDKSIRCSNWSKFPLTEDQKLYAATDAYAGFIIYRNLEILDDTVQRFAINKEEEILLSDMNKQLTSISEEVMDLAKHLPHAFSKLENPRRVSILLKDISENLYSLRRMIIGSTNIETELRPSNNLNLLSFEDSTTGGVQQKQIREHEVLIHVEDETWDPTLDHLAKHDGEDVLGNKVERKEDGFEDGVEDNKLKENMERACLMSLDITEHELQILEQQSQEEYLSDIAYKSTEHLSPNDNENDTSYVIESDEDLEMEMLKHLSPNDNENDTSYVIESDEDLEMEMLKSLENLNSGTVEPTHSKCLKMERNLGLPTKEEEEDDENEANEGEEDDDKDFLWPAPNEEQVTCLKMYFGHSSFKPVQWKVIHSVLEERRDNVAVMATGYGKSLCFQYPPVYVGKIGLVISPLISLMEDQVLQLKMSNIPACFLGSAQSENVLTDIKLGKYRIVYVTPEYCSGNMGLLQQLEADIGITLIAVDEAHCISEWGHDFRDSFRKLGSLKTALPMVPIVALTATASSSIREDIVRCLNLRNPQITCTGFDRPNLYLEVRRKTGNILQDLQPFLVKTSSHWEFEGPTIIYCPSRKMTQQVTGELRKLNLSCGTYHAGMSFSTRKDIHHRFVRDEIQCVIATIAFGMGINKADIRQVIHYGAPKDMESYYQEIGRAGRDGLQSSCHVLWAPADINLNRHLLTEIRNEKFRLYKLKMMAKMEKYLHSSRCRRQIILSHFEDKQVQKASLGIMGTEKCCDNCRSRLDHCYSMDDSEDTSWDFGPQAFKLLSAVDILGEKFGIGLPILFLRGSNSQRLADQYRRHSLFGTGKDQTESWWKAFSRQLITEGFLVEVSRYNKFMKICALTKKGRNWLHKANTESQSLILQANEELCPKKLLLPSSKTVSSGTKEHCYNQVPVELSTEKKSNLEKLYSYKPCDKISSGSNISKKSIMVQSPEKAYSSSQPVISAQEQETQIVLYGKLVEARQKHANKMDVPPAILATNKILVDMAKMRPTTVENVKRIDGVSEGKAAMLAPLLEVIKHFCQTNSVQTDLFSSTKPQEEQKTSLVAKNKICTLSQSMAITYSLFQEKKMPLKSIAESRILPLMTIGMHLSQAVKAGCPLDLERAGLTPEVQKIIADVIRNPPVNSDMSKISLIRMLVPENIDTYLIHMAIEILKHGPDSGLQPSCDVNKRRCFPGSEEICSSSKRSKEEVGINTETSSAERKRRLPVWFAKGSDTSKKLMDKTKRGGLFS

SMILES	Potency	activity change, negative = inhibition
O=C(N/N=C/c1ccccc1)c1cc(=O)[nH]c2ccccc12	inconclusive: 89.1 µM [inhibitor, single point]	–
N#CC1=C(N)Oc2n[nH]c(-c3cccs3)c2C1c1ccoc1 (stereo not given)	active: 44.7 µM	–
O=C(COC(=O)C1CCCCC1)Nc1ccccc1OC(F)F	inconclusive: 79.4 µM [inhibitor, single point]	–
CC(/C=C1\SC(=S)N(NC(=O)c2ccncc2)C1=O)=C\c1ccccc1	inconclusive: 56.2 µM [inhibitor, partial curve]	–
S=c1[nH]nc(-c2cccnc2)n1/N=C/C=C/c1ccco1	inconclusive: 56.2 µM [inhibitor, partial curve]	–
CCOC(=O)C1CN(S(C)(=O)=O)c2cc(CC(=O)OC)ccc2O1 (stereo not given)	–	inactive: 2.52% [at 57.1 µM]
CC(=O)c1cccc(-c2cnc3c(NC=O)cc(-c4ccc(F)cc4)cn23)c1	inconclusive: 35.5 µM [inhibitor, partial curve]	–
COc1ccc(/C=C2/C(=O)ON=C2C)cc1Cl	inconclusive: 44.7 µM [inhibitor, partial curve]	–
O=C(O)c1ccc([N+](=O)[O-])cc1Sc1ccsc1	inconclusive: 15.8 µM [inhibitor, single point]	–
CC1CCC/C(=N\Nc2ccc(Cl)c(C(=O)O)c2)C1 (stereo not given)	inconclusive: 44.7 µM [inhibitor, partial curve]	–
Cc1nnc(NC(=O)COc2ccc3c(C)cc(=O)oc3c2)s1	inconclusive: 56.2 µM [inhibitor, partial curve]	–
O=[N+]([O-])c1ccc2nc(SCc3cn4cc(Cl)ccc4n3)[nH]c2c1	inconclusive: 56.2 µM [inhibitor, partial curve]	–
CN(/N=C/c1ccc(-c2ccc([N+](=O)[O-])cc2)o1)c1ccccc1	–	inactive: -1.89% [at 57.1 µM]
CCN(CC)C(=O)c1cccc(NC(=O)c2ccc3c(=O)n4c(nc3c2)CCC4)c1	inconclusive: 79.4 µM [inhibitor, single point]	–
O=C(O)/C(=C/c1ccco1)NC(=O)c1ccccc1	–	inactive: -16.4%
CN(C)CCN(C(=O)c1ccc2c(c1)CCCC2)c1nc2c(F)cccc2s1	inconclusive: 22.4 µM [inhibitor, full curve, poor fit]	–
Cc1ccccc1N=C1NC(=O)/C(=C/c2cccnc2)S1	–	inactive: -8.76%
CCC(=O)Nc1ccc2ccccc2c1	–	inactive: -3.39%
O=C(CCc1ccccc1)Nc1ccc2c(c1)OCO2	inconclusive: 10 µM [inhibitor, full curve, poor fit]	–
O=C(OCC(=O)N1CCN(C(=O)c2ccco2)CC1)c1cc(-c2ccco2)nc2ccccc12	active: 50.1 µM	–
CCOc1cc(/C=N/NC(=O)c2ccc(-c3csc(Nc4ccc(C)cc4)n3)cc2)ccc1OCC(=O)O	active: 50.1 µM	–
Cc1onc(-c2ccccc2Cl)c1C(=O)NCCn1c(C)cc2ccccc21	active: 79.4 µM	–
COc1ccc(CNC(=O)CN(C)Cc2ccc(C(C)(C)C)cc2)cc1	inconclusive: 15.8 µM [inhibitor, full curve]	–

8 entries out of the list, ordered by molar mass, smallest number first:
SMILES	Potency	activity change, negative = inhibition
CCC(=O)Nc1ccc2ccccc2c1	–	inactive: -3.39%
O=C(O)/C(=C/c1ccco1)NC(=O)c1ccccc1	–	inactive: -16.4%
O=C(CCc1ccccc1)Nc1ccc2c(c1)OCO2	inconclusive: 10 µM [inhibitor, full curve, poor fit]	–
CC1CCC/C(=N\Nc2ccc(Cl)c(C(=O)O)c2)C1 (stereo not given)	inconclusive: 44.7 µM [inhibitor, partial curve]	–
O=C(N/N=C/c1ccccc1)c1cc(=O)[nH]c2ccccc12	inconclusive: 89.1 µM [inhibitor, single point]	–
CCOC(=O)C1CN(S(C)(=O)=O)c2cc(CC(=O)OC)ccc2O1 (stereo not given)	–	inactive: 2.52% [at 57.1 µM]
CCN(CC)C(=O)c1cccc(NC(=O)c2ccc3c(=O)n4c(nc3c2)CCC4)c1	inconclusive: 79.4 µM [inhibitor, single point]	–
O=C(OCC(=O)N1CCN(C(=O)c2ccco2)CC1)c1cc(-c2ccco2)nc2ccccc12	active: 50.1 µM	–

(continued)

SMILES	Potency	activity change, negative = inhibition
CC(=O)OCCNc1cc(Sc2nc3ccccc3[nH]2)c2nonc2c1[N+](=O)[O-]	inconclusive: 50.1 µM [inhibitor, partial curve]	–
Cc1noc(C)c1NC(=O)Nc1ccc2c(c1)C(=O)N([C@H](C)CO)C[C@H](C)[C@@H](CN(C)S(=O)(=O)c1ccc(Cl)cc1)OCCCC[C@@H](C)O2	–	inactive: 11.1%
COc1ccc(C(=O)/C=C/c2ccc(OCc3ccccc3)cc2)cc1CSCC(=O)O	inconclusive: 50.1 µM [inhibitor, partial curve]	–
O=C(Cc1cccs1)NCCc1csc(-c2ccccc2)n1	inconclusive: 39.8 µM [inhibitor, partial curve]	–
c1cnc2c(SCc3ccc(-c4nnco4)cc3)cccc2c1	–	inconclusive: -40.5% [inhibitor] [at 57.1 µM]
O=C1CSC(=S)N1N=Cc1ccc2c(c1)OCO2	inconclusive: 14.1 µM [inhibitor, full curve]	–
CC[n+]1c(/C=C/C=C/N(C(C)=O)c2ccccc2)sc2cc(OC)ccc21	inconclusive: 21.2 µM [inhibitor, partial curve]	–
Cc1nnc2ccc(-c3cccc(NS(=O)(=O)c4ccccc4Cl)c3)nn12	inconclusive: 28.2 µM [inhibitor, full curve, poor fit]	–
CCN(CC)c1ccc(/C=C2\SC(=O)N(C(C)C)C2=O)o1	inconclusive: 39.8 µM [inhibitor, partial curve]	–
COc1ccc(Br)cc1/C=C(\C(=O)O)c1ccc(S(=O)(=O)N2CCCC2)s1	inconclusive: 28.2 µM [inhibitor, partial curve]	–
O=C(NCc1cccnc1)c1ccccc1NS(=O)(=O)c1ccc(F)cc1	inconclusive: 89.1 µM [inhibitor, single point]	–
CC[C@@]1(c2ccccc2C)C(=O)N(C(=O)OC)N1C(=O)OC	–	inactive: 2.54%
Cn1cnnc1SCC(=O)c1cc2ccccc2oc1=O	inconclusive: 56.2 µM [inhibitor, partial curve]	–
CCOC(=O)C[n+]1c(C)sc2ccc(OC)cc21	active: 50.1 µM	–
CCc1ccc2c(c1)C(NC(C)=O)C(=O)N2CCN1CCOCC1 (stereo not given)	active: 44.7 µM	–
COc1ccc(CN2C(=NC(=O)C3CC3)SC3CS(=O)(=O)CC32)cc1OC (stereo not given)	–	inactive: 5.82%
O=C(NNS(=O)(=O)c1ccc([N+](=O)[O-])cc1)c1ccc([N+](=O)[O-])cc1	–	inactive: -2.91% [at 57.1 µM]
CCOc1ccc(Nc2c3ccccc3nc3ccccc23)cc1	inconclusive: 22.4 µM [inhibitor, partial curve]	–
COc1ccc(C2C(C#N)C(C#N)N3CCCN23)cc1 (stereo not given)	–	inactive: -4.17%
Cc1ccc(-n2[nH]c(C)c(/C=N/Nc3ccc([N+](=O)[O-])cc3[N+](=O)[O-])c2=O)cc1C	inconclusive: 15 µM [inhibitor, partial curve]	–
COc1ccc(N=Cc2ccccc2O)cc1	–	inactive: 5.14%
CCn1c(=O)c(C(=O)Nc2cccnc2)c(O)c2ccccc21	inconclusive: 50.1 µM [inhibitor, partial curve]	–
